Data as given in PubChem BioAssay AID1224828 (NIAID, 2016)
The deposit covers about 17,000 reagents; this is a part drawn at random. 762 of all reagents (4.5%) count as active. 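Active calls include both raised and lowered p65 entry, mostly lowered; wells with fewer than 50 cells lack a z-score.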 The raw values are shown without normalisation.

Test: 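Find genes required for NF-kappaB p65 moving into the nucleus after LPS in mouse macrophages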 (primary screen)
Cells: mouse RAW264.7 G9 macrophage reporter cells (GFP-p65, Tnf promoter-mCherry)
Knock-down reagent: siRNA pool against mouse genes, 100 nM
Time to read-out: 2 days siRNA transfection, then 40 min LPS before fixation
Conditions: LPS (Salmonella minnesota R595) at 10 ng/ml
Detection: 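Microscopy ratio of nuclear to perinuclear-ring GFP-p65 signal, scaled to the plate median; gene score is the average of two replicate robust z-scores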
Direction: p65 translocation robust z-score: higher = more nuclear NF-kappaB p65 after LPS than the plate median; nuclear/cytoplasmic p65 ratio: higher = more nuclear NF-kappaB p65
Hit rule: 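Active if robust z is above 3.3 (negative regulators) or below -1.56, the Tlr4 control median (positive regulators); activity score 50 or more; control wells not called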
Meaning of the calls: active = hit (p65 shift raised or lowered); inactive = no clear change

gene	p65 translocation robust z-score	nuclear/cytoplasmic p65 ratio, rep 1	nuclear/cytoplasmic p65 ratio, rep 2	low cell count flag	Call
Cs	-0.21	1.42	1.89	enough cells to score	inactive
Lancl3	-0.12	1.27	1.53	enough cells to score	inactive
Vmn1r226	-0.2	1.45	1.2	enough cells to score	inactive
Selenow	0.67	1.6	1.24	enough cells to score	inactive
Rwdd4a	0.84	1.72	1.96	enough cells to score	inactive
Or10ab5	-0.66	1.36	1.19	enough cells to score	inactive
Atp6v1d	-0.54	1.58	1.49	enough cells to score	inactive
Or12k7	0.5	1.74	1.45	enough cells to score	inactive
Or52n4	0.16	1.54	1.22	enough cells to score	inactive
Ccdc106	-1.24	1.44	1.58	enough cells to score	inactive
Tchhl1	-0.81	1.26	1.53	enough cells to score	inactive
Rnf183		1.16	1.26	fewer than 50 cells per well; well left out of scoring	inactive
Serpina3n	0.37	1.5	1.71	enough cells to score	inactive
Pappa	0.22	1.56	1.36	enough cells to score	inactive
Rpf2	-1.93	1.18	1.25	enough cells to score	active

Called active (from the list above):
gene	p65 translocation robust z-score	nuclear/cytoplasmic p65 ratio, rep 1	nuclear/cytoplasmic p65 ratio, rep 2	low cell count flag	Call
Rpf2	-1.93	1.18	1.25	enough cells to score	active

Additional records:
gene	p65 translocation robust z-score	nuclear/cytoplasmic p65 ratio, rep 1	nuclear/cytoplasmic p65 ratio, rep 2	low cell count flag	Call
Gpc2	-0.1	1.8	1.37	enough cells to score	inactive
Paox	-0.73	1.41	1.1	enough cells to score	inactive
Arl15	0.76	1.53	1.8	enough cells to score	inactive
Tmem183a	-0.77	1.4	1.38	enough cells to score	inactive
Atrnl1	-1.07	1.34	1.46	enough cells to score	inactive
Fbxl15	-0.74	1.52	1.33	enough cells to score	inactive
Ctsa	0.81	1.61	1.51	enough cells to score	inactive
Dnttip2	-0.08	1.25	1.02	enough cells to score	inactive
Vat1		1.14	1.35	fewer than 50 cells per well; well left out of scoring	inactive
